Laboratory results from PubChem BioAssay (EPA / NIEHS).
“And” between values parts separate entries of the source, which are not always exact repeats. Equal entries are not always repeated. Inconclusive results, whose numbers are uncertain, are shown with a selection of clear calls. A potency beside an inconclusive call is a rough fit, not a confirmed value. More than one record can exist for a structure, and the calls need not agree. The source made the active and inactive calls. How the source made its calls: active means hit-call score of the fitted dose curve at least 0.9, where 1 is the maximum; inconclusive means response in the unintended direction; inactive means score below 0.9.

Chains of the proteins cited; added tags and fusions are not shown. Lines headed by an entry give the natural chain unless they say otherwise; changes in a name come on top.
UniProt Q13133, whole entry, looked up: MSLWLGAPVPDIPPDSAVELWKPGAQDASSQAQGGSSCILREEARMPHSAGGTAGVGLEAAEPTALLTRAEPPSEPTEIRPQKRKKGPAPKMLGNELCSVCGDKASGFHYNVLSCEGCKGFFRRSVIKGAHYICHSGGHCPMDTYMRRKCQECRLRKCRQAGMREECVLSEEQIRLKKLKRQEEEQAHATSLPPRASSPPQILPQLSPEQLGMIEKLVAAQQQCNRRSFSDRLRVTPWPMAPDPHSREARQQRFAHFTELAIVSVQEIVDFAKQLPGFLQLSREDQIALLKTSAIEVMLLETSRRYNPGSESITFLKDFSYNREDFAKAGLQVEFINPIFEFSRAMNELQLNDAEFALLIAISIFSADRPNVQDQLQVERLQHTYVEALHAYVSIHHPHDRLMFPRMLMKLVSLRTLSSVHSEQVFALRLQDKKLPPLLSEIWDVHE
UniProt P55055, whole entry, looked up: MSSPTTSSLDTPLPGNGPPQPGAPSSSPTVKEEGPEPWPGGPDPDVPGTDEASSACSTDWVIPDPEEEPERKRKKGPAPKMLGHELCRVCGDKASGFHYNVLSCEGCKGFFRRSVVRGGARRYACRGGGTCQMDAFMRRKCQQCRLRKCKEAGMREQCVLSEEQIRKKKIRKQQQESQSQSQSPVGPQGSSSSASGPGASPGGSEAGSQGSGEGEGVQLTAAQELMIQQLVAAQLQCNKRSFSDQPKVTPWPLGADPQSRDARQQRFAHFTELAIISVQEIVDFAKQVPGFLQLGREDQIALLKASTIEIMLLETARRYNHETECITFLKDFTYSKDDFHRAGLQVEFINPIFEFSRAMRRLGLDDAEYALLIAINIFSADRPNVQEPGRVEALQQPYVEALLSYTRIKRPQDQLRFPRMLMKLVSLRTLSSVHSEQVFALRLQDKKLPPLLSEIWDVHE
UniProt P41235: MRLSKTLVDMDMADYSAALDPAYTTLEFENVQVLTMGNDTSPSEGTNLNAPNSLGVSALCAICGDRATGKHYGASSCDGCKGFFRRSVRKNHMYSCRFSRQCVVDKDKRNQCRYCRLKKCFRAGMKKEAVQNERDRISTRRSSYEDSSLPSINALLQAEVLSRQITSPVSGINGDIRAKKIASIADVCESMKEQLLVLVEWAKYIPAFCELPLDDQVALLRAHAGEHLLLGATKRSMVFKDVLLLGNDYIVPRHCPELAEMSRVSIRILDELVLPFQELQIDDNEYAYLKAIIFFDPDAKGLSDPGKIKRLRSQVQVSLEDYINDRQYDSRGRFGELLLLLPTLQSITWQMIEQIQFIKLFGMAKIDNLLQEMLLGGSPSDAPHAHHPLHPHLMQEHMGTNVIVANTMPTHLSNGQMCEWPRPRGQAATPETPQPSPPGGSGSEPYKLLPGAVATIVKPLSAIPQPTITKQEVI
UniProt Q07869: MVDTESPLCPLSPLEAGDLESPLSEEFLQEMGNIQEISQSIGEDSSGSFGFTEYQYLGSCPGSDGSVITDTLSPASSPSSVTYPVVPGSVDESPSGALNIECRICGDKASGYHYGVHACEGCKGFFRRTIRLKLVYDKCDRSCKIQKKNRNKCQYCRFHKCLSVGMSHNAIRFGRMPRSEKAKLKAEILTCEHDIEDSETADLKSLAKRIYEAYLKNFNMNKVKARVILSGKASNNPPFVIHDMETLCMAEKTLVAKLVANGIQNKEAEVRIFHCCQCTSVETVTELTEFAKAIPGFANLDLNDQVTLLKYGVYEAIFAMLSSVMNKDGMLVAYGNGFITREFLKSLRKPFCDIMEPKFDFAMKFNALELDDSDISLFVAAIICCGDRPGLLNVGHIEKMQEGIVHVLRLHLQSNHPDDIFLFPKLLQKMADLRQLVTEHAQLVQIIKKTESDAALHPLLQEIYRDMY
UniProt P10826, whole entry, looked up: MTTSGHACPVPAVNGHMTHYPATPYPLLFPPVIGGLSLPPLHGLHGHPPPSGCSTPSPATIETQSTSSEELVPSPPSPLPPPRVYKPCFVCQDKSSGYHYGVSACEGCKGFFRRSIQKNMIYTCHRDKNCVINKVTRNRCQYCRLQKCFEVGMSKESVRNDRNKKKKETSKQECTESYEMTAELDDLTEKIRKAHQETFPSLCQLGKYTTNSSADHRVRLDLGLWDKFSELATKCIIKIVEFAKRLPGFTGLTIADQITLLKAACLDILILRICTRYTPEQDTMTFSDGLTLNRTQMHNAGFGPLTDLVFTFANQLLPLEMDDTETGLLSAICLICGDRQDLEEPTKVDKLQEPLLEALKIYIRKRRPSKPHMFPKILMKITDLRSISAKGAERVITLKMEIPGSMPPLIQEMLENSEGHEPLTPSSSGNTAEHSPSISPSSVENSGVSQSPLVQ
UniProt P10276, whole entry, looked up: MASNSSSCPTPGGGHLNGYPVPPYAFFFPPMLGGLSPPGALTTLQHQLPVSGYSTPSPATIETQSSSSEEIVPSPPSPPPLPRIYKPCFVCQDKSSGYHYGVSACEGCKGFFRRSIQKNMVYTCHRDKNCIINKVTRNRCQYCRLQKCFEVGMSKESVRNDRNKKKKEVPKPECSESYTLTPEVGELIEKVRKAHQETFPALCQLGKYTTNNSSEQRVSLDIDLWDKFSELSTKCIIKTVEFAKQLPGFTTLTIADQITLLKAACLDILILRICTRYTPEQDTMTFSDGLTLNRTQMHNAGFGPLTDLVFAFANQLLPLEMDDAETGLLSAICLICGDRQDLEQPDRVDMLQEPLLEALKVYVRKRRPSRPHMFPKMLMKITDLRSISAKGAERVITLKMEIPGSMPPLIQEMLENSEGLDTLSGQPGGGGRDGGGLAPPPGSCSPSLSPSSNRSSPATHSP
UniProt P37231: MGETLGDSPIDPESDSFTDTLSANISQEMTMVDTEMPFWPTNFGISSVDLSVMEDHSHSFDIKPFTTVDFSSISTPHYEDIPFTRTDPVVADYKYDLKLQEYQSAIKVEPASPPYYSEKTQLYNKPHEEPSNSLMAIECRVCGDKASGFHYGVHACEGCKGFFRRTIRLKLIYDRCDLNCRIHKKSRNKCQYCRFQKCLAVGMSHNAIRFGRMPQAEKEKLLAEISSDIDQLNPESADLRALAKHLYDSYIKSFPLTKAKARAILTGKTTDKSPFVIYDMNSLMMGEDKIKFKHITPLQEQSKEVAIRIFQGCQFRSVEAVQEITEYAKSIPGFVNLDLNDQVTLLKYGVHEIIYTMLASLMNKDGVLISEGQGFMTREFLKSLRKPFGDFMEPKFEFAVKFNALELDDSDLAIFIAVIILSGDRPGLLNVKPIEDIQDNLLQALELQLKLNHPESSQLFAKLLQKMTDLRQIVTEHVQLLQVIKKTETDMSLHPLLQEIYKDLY
UniProt Q92753: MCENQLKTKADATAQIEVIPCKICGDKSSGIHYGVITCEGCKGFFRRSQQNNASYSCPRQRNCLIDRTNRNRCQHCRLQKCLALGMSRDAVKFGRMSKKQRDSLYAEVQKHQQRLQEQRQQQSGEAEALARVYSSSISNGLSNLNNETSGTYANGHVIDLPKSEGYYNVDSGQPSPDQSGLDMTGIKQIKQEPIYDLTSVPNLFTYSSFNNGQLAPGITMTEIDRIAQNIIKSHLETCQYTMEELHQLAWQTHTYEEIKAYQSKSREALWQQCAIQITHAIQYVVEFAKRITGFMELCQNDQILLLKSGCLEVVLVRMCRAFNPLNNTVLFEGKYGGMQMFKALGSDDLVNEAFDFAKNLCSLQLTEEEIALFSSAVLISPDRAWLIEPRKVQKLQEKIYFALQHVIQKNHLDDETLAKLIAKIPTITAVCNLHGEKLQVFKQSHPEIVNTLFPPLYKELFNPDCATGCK
UniProt P51449: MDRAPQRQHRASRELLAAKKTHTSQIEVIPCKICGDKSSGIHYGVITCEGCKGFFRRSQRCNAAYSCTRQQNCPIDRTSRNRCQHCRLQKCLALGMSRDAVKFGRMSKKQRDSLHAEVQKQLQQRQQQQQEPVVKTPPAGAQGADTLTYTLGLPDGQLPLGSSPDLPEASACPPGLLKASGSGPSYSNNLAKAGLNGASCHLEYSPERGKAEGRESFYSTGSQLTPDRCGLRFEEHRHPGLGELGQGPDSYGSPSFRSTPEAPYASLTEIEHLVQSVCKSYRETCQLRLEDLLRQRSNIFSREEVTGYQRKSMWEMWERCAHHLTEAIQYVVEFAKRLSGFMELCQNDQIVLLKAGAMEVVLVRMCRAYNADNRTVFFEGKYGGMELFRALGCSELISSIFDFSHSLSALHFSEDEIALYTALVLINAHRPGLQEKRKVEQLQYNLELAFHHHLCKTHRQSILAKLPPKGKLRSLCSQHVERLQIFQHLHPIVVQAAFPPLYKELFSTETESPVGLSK
UniProt P28702: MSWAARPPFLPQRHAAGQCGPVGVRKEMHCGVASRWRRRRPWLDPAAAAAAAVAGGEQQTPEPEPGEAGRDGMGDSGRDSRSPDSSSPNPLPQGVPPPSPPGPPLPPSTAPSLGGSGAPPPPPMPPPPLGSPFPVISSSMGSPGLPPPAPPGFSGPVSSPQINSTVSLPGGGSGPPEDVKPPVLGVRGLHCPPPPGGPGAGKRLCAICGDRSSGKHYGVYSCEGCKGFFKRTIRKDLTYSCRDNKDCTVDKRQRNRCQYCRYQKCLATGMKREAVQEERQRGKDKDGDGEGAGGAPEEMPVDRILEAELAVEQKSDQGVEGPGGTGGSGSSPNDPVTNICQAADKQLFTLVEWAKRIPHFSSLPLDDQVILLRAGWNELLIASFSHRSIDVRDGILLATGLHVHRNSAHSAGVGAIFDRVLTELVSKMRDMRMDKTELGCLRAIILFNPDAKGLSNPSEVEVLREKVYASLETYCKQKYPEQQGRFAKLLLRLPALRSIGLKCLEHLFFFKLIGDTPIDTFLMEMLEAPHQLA
UniProt P13631, whole entry, looked up: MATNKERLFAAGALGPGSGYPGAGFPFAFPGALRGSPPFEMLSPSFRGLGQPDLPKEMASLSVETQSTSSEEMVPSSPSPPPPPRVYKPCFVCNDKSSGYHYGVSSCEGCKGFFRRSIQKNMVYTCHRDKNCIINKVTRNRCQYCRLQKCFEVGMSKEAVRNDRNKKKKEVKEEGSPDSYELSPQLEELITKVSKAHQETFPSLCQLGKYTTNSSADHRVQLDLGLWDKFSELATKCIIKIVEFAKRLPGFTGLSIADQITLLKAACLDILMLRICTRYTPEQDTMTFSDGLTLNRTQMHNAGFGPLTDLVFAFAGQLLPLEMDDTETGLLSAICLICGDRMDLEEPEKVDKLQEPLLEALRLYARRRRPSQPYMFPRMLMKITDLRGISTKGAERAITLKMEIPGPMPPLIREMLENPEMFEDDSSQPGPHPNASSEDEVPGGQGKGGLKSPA
UniProt P43354, whole entry, looked up: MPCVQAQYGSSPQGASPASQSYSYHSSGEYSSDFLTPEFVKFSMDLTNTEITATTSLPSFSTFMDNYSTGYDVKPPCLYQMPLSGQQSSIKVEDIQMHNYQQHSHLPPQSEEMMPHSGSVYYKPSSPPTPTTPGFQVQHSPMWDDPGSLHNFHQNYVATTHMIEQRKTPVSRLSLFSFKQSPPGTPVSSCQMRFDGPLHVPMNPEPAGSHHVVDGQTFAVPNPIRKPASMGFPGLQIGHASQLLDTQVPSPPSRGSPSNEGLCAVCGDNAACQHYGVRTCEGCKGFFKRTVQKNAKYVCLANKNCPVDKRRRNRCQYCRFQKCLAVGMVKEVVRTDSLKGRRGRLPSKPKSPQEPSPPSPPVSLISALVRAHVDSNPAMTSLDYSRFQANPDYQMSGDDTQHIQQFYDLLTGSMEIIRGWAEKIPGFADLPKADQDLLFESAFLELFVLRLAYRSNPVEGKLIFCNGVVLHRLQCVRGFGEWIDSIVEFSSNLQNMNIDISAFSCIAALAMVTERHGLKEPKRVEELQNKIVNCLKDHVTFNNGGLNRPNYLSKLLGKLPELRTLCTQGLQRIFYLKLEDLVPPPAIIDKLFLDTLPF
UniProt P10827: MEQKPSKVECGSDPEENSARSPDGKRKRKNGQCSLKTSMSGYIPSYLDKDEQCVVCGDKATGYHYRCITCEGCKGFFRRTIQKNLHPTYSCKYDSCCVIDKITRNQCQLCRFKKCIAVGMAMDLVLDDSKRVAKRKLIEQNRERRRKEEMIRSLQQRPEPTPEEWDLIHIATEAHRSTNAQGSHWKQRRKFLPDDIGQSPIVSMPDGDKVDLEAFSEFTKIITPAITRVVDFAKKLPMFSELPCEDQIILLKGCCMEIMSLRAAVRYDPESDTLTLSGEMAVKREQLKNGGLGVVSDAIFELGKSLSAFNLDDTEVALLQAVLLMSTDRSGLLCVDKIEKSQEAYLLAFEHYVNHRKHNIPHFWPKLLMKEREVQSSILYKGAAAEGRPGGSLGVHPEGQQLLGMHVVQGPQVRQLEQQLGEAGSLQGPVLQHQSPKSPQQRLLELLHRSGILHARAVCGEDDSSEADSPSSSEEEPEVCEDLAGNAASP

Legend:
[1] = ATG_M_19_TRANS: Attagene TRANS-FACTORIAL HepG2 Assay for M19 Transcription Factor (Internal Marker) (AID 2282974); details: HepG2 Attagene TRANS-FACTORIAL M19 internal marker reporter
Outline: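 Gain-of-signal in reporter mRNA, relative to DMSO, was scored from capillary electrophoresis fluorescence. HepG2 cells carried transiently transfected multiple reporter transcription units and were incubated with test chemicals for 24 h.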

[2] = ATG_GAL4_TRANS: Attagene TRANS-FACTORIAL HepG2 Assay for GAL4 (Internal Marker) (AID 2282976); details: HepG2 Attagene TRANS GAL4 internal marker reporter
Outline: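 HepG2 cells transiently transfected with multiplexed GAL4-UAS reporter constructs were dosed for 24 h. Reporter mRNA was measured by RT-PCR, 6-FAM primer extension, HpaI digestion and capillary electrophoresis, and gain of signal was fitted relative to DMSO.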

[3] = biological target: Oxysterols receptor LXR-alpha (Homo sapiens) (UniProt Q13133); assay: ATG_LXRa_TRANS: Attagene TRANS-FACTORIAL HepG2 Assay for human Liver X Receptor alpha (LXRa) (AID 2282980); details: HepG2 Attagene TRANS reporter, LXRa transactivation
Outline: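 HepG2 cells were transiently transfected with multiplexed reporter units driven by chimeric LXRa–GAL4 fusion proteins, then dosed for 24 h. Reporter mRNA was quantified by RT-PCR, fluorescent labelling and capillary electrophoresis; gain of signal fitted against DMSO baseline.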

[4] = biological target: Oxysterols receptor LXR-beta (Homo sapiens) (UniProt P55055); assay: ATG_LXRb_TRANS: Attagene TRANS-FACTORIAL HepG2 Assay for human Liver X Receptor beta (LXRb) (AID 2282981); details: HepG2 Attagene TRANS GAL4-LXRb reporter, mRNA
Outline: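 Transient transfection HepG2 (multiplexed RTUs, GAL4-UAS); NR-Gal4 chimera; 24 h exposure; RNA → RT-PCR → 6-FAM primer extension → HpaI → CE; increase vs DMSO.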

[5] = biological target: Hepatocyte nuclear factor 4-alpha (Homo sapiens) (UniProt P41235); assay: ATG_HNF4a_TRANS: Attagene TRANS-FACTORIAL HepG2 Assay for human Hepatocyte Nuclear Factor 4 alpha (HNF4a) (AID 2282982); details: HepG2 HNF4a transactivation reporter, mRNA readout
Outline: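 Readout is fluorescent reporter-transcript fragments resolved by capillary electrophoresis after RT-PCR from HepG2 cells dosed for 24 h. Cells carried transfected GAL4-UAS reporter constructs measuring exogenous NR-GAL4 chimera activity; DMSO served as baseline.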

[6] = biological target: human Peroxisome Proliferator-activated Receptor alpha (PPARa), PPARA (gene 5465) (UniProt Q07869); assay: ATG_PPARa_TRANS: Attagene TRANS-FACTORIAL HepG2 Assay for human Peroxisome Proliferator-activated Receptor alpha (PPARa) (AID 2283001);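 further: potency for gain of reporter signal over DMSO so agonist or activator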
Outline: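 Read-out is fluorescence of reporter cDNA fragments resolved by capillary electrophoresis after RT-PCR. Human HepG2 liver cells carried transfected PPARa-Gal4 chimera and GAL4-UAS reporter units, treated 24 h; activity scored as increase over DMSO.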

[7] = biological target: human Retinoic Acid Receptor beta (RARb), RARB (gene 5915) (UniProt P10826); assay: ATG_RARb_TRANS: Attagene TRANS-FACTORIAL HepG2 Assay for human Retinoic Acid Receptor beta (AID 2283004)
Outline: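 HepG2 cells transiently transfected with multiplexed GAL4-UAS reporter units expressing chimeric NR–Gal4 fusions; 24 h compound exposure. Reporter mRNA quantified by RT-PCR, 6-FAM labelling, HpaI digestion and capillary electrophoresis; gain-of-signal fitted against DMSO baseline.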

[8] = biological target: Retinoic acid receptor alpha (Homo sapiens) (UniProt P10276); assay: ATG_RARa_TRANS: Attagene TRANS-FACTORIAL HepG2 Assay for human Retinoic Acid Receptor alpha (RARa) (AID 2283005);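 on AC50: potency for increased reporter signal meaning RARa activation over DMSO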
Outline: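 Reporter transcripts, measured by RT-PCR with fluorescent labeling and capillary electrophoresis after 24 h dosing, reflect activity of an exogenous human RARa–GAL4 fusion in transiently transfected HepG2. Fitted for increase relative to DMSO.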

[9] = biological target: Peroxisome proliferator-activated receptor gamma (Homo sapiens) (UniProt P37231); assay: ATG_PPARg_TRANS: Attagene TRANS-FACTORIAL HepG2 Assay for human Peroxisome Proliferator-activated Receptor-gamma (PPARg) (AID 2283007)
Outline: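 Liver-derived HepG2 cells expressing an exogenous NR-Gal4 chimera alongside GAL4-UAS reporter genes; 24 h exposure. Fluorescence of reporter RT-PCR products, separated by capillary electrophoresis, gives mRNA induction relative to DMSO.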

[10] = biological target: human RAR-related Orphan Receptor beta (RORb), RORB (gene 6096) (UniProt Q92753); assay: ATG_RORb_TRANS: Attagene TRANS-FACTORIAL HepG2 Assay for human RAR-related Orphan Receptor beta (RORb) (AID 2283010);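 on AC50: potency for increased reporter mRNA meaning activation of RORb-Gal4 chimera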
Outline: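 HepG2 cells transiently transfected with GAL4-UAS reporter units expressing chimeric NR-Gal4 protein; reporter mRNA measured 24 h after dosing by RT-PCR, 6-FAM labelling and capillary electrophoresis. Gain-of-signal fitted relative to DMSO baseline.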

[11] = biological target: human RAR-related Orphan Receptor gamma (RORg), RORC (gene 6097) (UniProt P51449); assay: ATG_RORg_TRANS: Attagene TRANS-FACTORIAL HepG2 Assay for human RAR-related Orphan Receptor gamma (RORg) (AID 2283011);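 on AC50: potency for induction of reporter transcripts above DMSO so activators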
Outline: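 Readout: reporter transcript induction (RT-PCR, fluorescent primer extension, capillary electrophoresis) after 24 h compound exposure of transiently transfected HepG2 cells carrying a RORg-Gal4 chimera and GAL4-UAS reporters; DMSO served as baseline, with increasing signal fitted.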

[12] = biological target: human Retinoid X Receptor beta (RXRb), RXRB (gene 6257) (UniProt P28702); assay: ATG_RXRb_TRANS: Attagene TRANS-FACTORIAL HepG2 Assay for human Retinoid X Receptor beta (RXRb) (AID 2283013)
Outline: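 HepG2 cells were transiently transfected with multiplexed GAL4-UAS reporters and a chimeric RXRb-Gal4 construct, then exposed for 24 h. Reporter mRNA was quantified by RT-PCR, FAM labeling, HpaI digestion and capillary electrophoresis; gain of signal was scored against DMSO.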

[13] = TOX21_p53_BLA_p2_viability: Viability Assessment in the Tox21 HCT-116 p53 Agonism Beta-lactamase Assay, Phase 2 (AID 2283591);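 further: compound exposure lasted 16 h at 37 °C; actives lower the ATP signal meaning cytotoxicity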
Outline: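 Cytotoxicity readout: CellTiter-Glo ATP luminescence, 30 min at room temperature, after the beta-lactamase read. Cells were HCT116 exposed 16 h at 37C to compounds pin-transferred at 217-fold dilution from DMSO stocks.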

[14] = TOX21_p53_BLA_p3_viability: Viability Assessment in the Tox21 HCT-116 p53 Agonism Beta-lactamase Assay, Phase 3 (AID 2283593);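 further: cells exposed to compound for 16 h before reading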
Outline: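 Cellular ATP was quantified by CellTiter-Glo luminescence, read after 30 min at room temperature. Beforehand, HCT116 cells (4000/well) received compound 5 h post-seeding, 217-fold diluted from DMSO, then incubated 16 h at 37C.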

[15] = TOX21_p53_BLA_p4_viability: Viability Assessment in the Tox21 HCT-116 p53 Agonism Beta-lactamase Assay, Phase 4 (AID 2283597);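 further: hits lower the luminescence signal meaning cytotoxicity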
Outline: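 HCT116 p53-bla cells (4000/well) rested 5 h at 37C, then received compounds in DMSO (217-fold dilution) for 16 h at 37C, 5% CO2. CellTiter-Glo was added after the CCF4-AM read, and luminescence was read after 30 min at room temperature.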

[16] = ACEA_ER_AUC_viability: ACEA Biosciences xCELLigence Real-Time Cell Analysis on Estrogen Receptor Agonism for Viability (AID 2283782);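 further: continuous compound exposure with impedance area under curve over 80 h; hit means loss of impedance signal meaning reduced cell growth or viability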
Outline: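 T-47D; phenol red-free RPMI1640 + 10% CS-FBS; 8 conc., 1:4 serial, max 100 uM final, ≤0.5% DMSO; n = 2; continuous exposure; impedance monitored to 80 h post-dose; AUC vs DMSO.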

[17] = biological target: human Retinoic Acid Receptor gamma (RARg), RARG (gene 5916) (UniProt P13631); assay: ATG_RARg_TRANS: Attagene TRANS-FACTORIAL HepG2 Assay for human Retinoic Acid Receptor gamma (RARg) (AID 2283009);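 on AC50: AC50 is for reporter induction above DMSO meaning RARg activation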
Outline: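 HepG2 transiently transfected with GAL4-UAS reporter units and chimeric NR-Gal4 constructs; 24 h compound exposure. Reporter mRNA quantified by RT-PCR, FAM labeling, HpaI digestion and capillary electrophoresis; gain-of-signal versus DMSO.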

[18] = TOX21_p53_BLA_p5_viability: Viability Assessment in the Tox21 HCT-116 p53 Agonism Beta-lactamase Assay, Phase 5 (AID 2283600)
Outline: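 Cells were plated at 4000/well, rested 5 h at 37C, then given compounds in DMSO (217-fold dilution) for 16 h at 37C, 5% CO2. Following the CCF4-AM beta-lactamase read, CellTiter-Glo was added and luminescence was read after 30 min at room temperature.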

[19] = biological target: Nuclear receptor subfamily 4 group A member 2 (Homo sapiens) (UniProt P43354); assay: ATG_NURR1_TRANS: Attagene TRANS-FACTORIAL HepG2 Assay for human Nuclear Receptor Related Protein 1 (NURR1) (AID 2282985); details: HepG2 Attagene TRANS reporter, mRNA readout
Outline: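 Transient transfection of HepG2, human liver cells, with multiple GAL4-UAS reporter transcription units. Cells dosed 24 h, RNA isolated, reverse-transcribed, PCR-amplified, FAM-labelled, HpaI-digested, sized by capillary electrophoresis. DMSO served as negative control.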

[20] = biological target: human Thyroid Receptor alpha (THRa1), THRA (gene 7067) (UniProt P10827); assay: ATG_THRa1_TRANS: Attagene TRANS-FACTORIAL HepG2 Assay for human Thyroid Receptor alpha (THRa1) (AID 2283014)
Outline: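 HepG2 cells transiently transfected with multiplexed GAL4-UAS reporter units for exogenous chimeric THRa1-Gal4; reporter mRNA measured 24 h after dosing by RT-PCR, 6-FAM labelling, HpaI digestion and capillary electrophoresis. Gain-of-signal fitted versus DMSO baseline.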

Measured: AC50

CCCCOCCOCCO
inactive: [1] | [2] | [7] | [8] | [10] | [14] | [15]
inconclusive: [3] 100 µM | [4] 0.248 µM | [5] 0.734 µM | [6] 100 µM | [9] 1.42 µM | [11] 100 µM | [12] 100 µM | [13] 46.1 µM | [14] 0.0463 µM | [15] 14.1 µM | [16] 50 µM

CCCCC(CC)COC(=O)c1ccc(O)cc1 (stereo unspecified)
inconclusive: [1] 19.8 µM and 57.6 µM | [2] 2.2 µM | [7] 59.2 µM | [17] 33.4 µM
active: [12] 33.4 µM | [13] 41.9 µM and 67.8 µM | [14] 84.1 µM | [15] 72.2 µM and 45.9 µM | [18] 56.6 µM and 66.6 µM
inactive: [3] | [5] | [8] | [10] | [11]

CO[Si](CCCNCCN)(OC)OC
inconclusive: [1] 100 µM | [2] 100 µM | [3] 100 µM | [9] 100 µM | [12] 100 µM
inactive: [7] | [8] | [10] | [11] | [16]

CC1CCC(C(C)(C)O)CC1 (stereo unspecified)
inactive: [1] | [2] | [3] | [4] | [19] | [10] | [11] | [20]
inconclusive: [9] 100 µM
